Experimental data reported in paper PMC6739341.

Amino acid sequences for entries named in this document (tags omitted).
UniProt Q13263: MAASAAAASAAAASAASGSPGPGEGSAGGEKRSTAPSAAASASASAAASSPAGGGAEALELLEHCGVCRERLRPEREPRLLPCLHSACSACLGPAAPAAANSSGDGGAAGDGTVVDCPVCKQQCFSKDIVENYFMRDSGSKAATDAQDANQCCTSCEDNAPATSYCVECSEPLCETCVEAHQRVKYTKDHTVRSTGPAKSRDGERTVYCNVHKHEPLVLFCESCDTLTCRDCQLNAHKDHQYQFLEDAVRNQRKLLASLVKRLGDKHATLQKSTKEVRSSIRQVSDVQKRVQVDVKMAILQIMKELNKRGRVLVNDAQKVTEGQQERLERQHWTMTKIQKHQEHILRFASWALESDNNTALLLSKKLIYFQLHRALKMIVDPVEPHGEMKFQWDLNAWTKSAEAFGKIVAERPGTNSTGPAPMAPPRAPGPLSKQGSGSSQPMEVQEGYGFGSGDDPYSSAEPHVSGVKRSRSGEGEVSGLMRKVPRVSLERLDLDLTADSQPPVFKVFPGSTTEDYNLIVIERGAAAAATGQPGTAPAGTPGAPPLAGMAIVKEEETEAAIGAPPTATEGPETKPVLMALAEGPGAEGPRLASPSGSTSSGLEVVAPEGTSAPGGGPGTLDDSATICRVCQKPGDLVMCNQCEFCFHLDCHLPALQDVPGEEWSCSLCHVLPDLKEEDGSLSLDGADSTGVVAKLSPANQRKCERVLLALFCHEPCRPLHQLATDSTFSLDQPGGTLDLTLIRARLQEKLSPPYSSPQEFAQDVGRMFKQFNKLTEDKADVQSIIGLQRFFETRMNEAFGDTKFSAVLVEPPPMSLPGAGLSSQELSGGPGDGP
UniProt P20700: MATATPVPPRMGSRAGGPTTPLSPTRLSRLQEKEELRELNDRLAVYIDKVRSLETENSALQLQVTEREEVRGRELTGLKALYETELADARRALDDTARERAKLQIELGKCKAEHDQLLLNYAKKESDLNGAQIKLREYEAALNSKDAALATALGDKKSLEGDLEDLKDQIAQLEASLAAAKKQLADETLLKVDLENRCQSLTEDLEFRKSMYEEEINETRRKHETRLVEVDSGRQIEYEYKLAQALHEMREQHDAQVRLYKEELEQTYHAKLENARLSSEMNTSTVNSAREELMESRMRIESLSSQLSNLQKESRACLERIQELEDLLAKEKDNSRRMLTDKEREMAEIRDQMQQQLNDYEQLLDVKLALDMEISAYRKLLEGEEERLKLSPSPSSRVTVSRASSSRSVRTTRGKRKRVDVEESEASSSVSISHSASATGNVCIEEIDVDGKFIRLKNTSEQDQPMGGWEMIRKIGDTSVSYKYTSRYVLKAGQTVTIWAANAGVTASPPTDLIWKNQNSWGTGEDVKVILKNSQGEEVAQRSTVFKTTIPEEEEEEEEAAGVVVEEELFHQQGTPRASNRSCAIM

B1: MBD-containing-associated factor (MCAF1), endogenous in HEK293 (protein, UniProt Q6VMQ6 1-1270)
chain: MDSLEEPQKKVFKARKTMRVSDRQQLEAVYKVKEELLKTDVKLLNGNHENGDLDPTSPLENMDYIKDKEEVNGIEEICFDPEGSKAEWKETPCILSVNVKNKQDDDLNCEPLSPHNITPEPVSKLPAEPVSGDPAPGDLDAGDPASGVLASGDSTSGDPTSSEPSSSDAASGDATSGDAPSGDVSPGDATSGDATADDLSSGDPTSSDPIPGEPVPVEPISGDCAADDIASSEITSVDLASGAPASTDPASDDLASGDLSSSELASDDLATGELASDELTSESTFDRTFEPKSVPVCEPVPEIDNIEPSSNKDDDFLEKNGADEKLEQIQSKDSLDEKNKADNNIDANEETLETDDTTICSDRPPENEKKVEEDIITELALGEDAISSSMEIDQGEKNEDETSADLVETINENVIEDNKSENILENTDSMETDEIIPILEKLAPSEDELTCFSKTSLLPIDETNPDLEEKMESSFGSPSKQESSESLPKEAFLVLSDEEDISGEKDESEVISQNETCSPAEVESNEKDNKPEEEEQVIHEDDERPSEKNEFSRRKRSKSEDMDNVQSKRRRYMEEEYEAEFQVKITAKGDINQKLQKVIQWLLEEKLCALQCAVFDKTLAELKTRVEKIECNKRHKTVLTELQAKIARLTKRFEAAKEDLKKRHEHPPNPPVSPGKTVNDVNSNNNMSYRNAGTVRQMLESKRNVSESAPPSFQTPVNTVSSTNLVTPPAVVSSQPKLQTPVTSGSLTATSVLPAPNTATVVATTQVPSGNPQPTISLQPLPVILHVPVAVSSQPQLLQSHPGTLVTNQPSGNVEFISVQSPPTVSGLTKNPVSLPSLPNPTKPNNVPSVPSPSIQRNPTASAAPLGTTLAVQAVPTAHSIVQATRTSLPTVGPSGLYSPSTNRGPIQMKIPISAFSTSSAAEQNSNTTPRIENQTNKTIDASVSKKAADSTSQCGKATGSDSSGVIDLTMDDEESGASQDPKKLNHTPVSTMSSSQPVSRPLQPIQPAPPLQPSGVPTSGPSQTTIHLLPTAPTTVNVTHRPVTQVTTRLPVPRAPANHQVVYTTLPAPPAQAPLRGTVMQAPAVRQVNPQNSVTVRVPQTTTYVVNNGLTLGSTGPQLTVHHRPPQVHTEPPRPVHPAPLPEAPQPQRLPPEAASTSLPQKPHLKLARVQSQNGIVLSWSVLEVDRSCATVDSYHLYAYHEEPSATVPSQWKKIGEVKALPLPMACTLTQFVSGSKYYFAVRAKDIYGRFGPFCDPQSTDVISSTQSS
B2: Lamina-associated protein 2, isoform alpha (LAP2A), endogenous in HEK293 (protein, UniProt P42166 1-694)
chain: MPEFLEDPSVLTKDKLKSELVANNVTLPAGEQRKDVYVQLYLQHLTARNRPPLPAGTNSKGPPDFSSDEEREPTPVLGSGAAAAGRSRAAVGRKATKKTDKPRQEDKDDLDVTELTNEDLLDQLVKYGVNPGPIVGTTRKLYEKKLLKLREQGTESRSSTPLPTISSSAENTRQNGSNDSDRYSDNEEGKKKEHKKVKSTRDIVPFSELGTTPSGGGFFQGISFPEISTRPPLGSTELQAAKKVHTSKGDLPREPLVATNLPGRGQLQKLASERNLFISCKSSHDRCLEKSSSSSSQPEHSAMLVSTAASPSLIKETTTGYYKDIVENICGREKSGIQPLCPERSHISDQSPLSSKRKALEESESSQLISPPLAQAIRDYVNSLLVQGGVGSLPGTSNSMPPLDVENIQKRIDQSKFQETEFLSPPRKVPRLSEKSVEERDSGSFVAFQNIPGSELMSSFAKTVVSHSLTTLGLEVAKQSQHDKIDASELSFPFHESILKVIEEEWQQVDRQLPSLACKYPVSSREATQILSVPKVDDEILGFISEATPLGGIQAASTESCNQQLDLALCRAYEAAASALQIATHTAFVAKAMQADISQAAQILSSDPSRTHQALGILSKTYDAASYICEAAFDEVKMAAHTMGNATVGRRYLWLKDCKINLASKNKLASTPFKGGTLFGGEVCKVIKKRGNKH

Molecular target: T1, FLAG-HA-tagged full length C11orf46 (human) (UniProt Q8N8R7)
T1 sequence: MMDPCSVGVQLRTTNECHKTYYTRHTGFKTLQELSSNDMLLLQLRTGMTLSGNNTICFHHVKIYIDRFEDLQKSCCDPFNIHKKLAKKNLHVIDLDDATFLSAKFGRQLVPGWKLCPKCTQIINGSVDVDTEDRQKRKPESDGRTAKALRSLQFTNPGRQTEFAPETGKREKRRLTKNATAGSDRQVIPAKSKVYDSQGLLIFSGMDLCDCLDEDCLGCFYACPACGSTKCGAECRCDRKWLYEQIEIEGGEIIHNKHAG
Assay: affinity purification with mass spectrometry; FLAG-tagged C11orf46 or C11orf46∆ induced with 2 μg/ml doxycycline for 48 h in HEK293; lysate with Benzonase passed over anti-FLAG agarose column at 4 °C, washed with CS100-0.02 and CS500-0.02 buffers, eluted with 3X-FLAG peptide; silver stain and mass spectrometry

| Molecule | binding |
| --- | --- |
| KRAB associated protein (KAP1), endogenous in HEK293 (from UniProt Q13263 1-835) | binds |
| Lamin B1 (LMNB1), endogenous in HEK293 (from UniProt P20700 1-586) | binds |
| B1 | binds |
| B2 | binds |

No constants are given. Whether binding was seen depends on the method and setting. In cells and extracts the contact can be indirect. Here binding means that the protein was enriched with, or labelled near, the bait; the list need not be complete. Sequences can lack the tags named with a protein.
